Patent US9901553B2, “Method of modulating the activity of a nucleic acid molecule” (DUKE UNIVERSITY, priority 2007, dated 2018)

Legend:
Aptamer Ch-9.3t = assay: Isothermal titration calorimetry (Example V, Table 3); format: binding; conditions: ITC, 298K, PBS
aptamer 9.3t = assay: Isothermal titration calorimetry, two-sites binding model (Table 5)

Molecule	TΔS (Aptamer Ch-9.3t)	ΔG (Aptamer Ch-9.3t)	ΔH (Aptamer Ch-9.3t)	TΔS (aptamer 9.3t; first stage binding)	ΔG (aptamer 9.3t; first stage binding)	ΔH (aptamer 9.3t; first stage binding)	TΔS (aptamer 9.3t; second stage binding)	ΔG (aptamer 9.3t; second stage binding)	ΔH (aptamer 9.3t; second stage binding)
NCCCNCCCCNCCCN [Spermine]	+21.3 kJ mol^−1	-5.38 kcal/mol	-0.282 kcal/mol	34.42 kJ mol^−1 K	-8.468 kcal/mol	-0.241 kcal/mol	28.80 kJ mol^−1 K	-6.955 kcal/mol	-0.0717 kcal/mol
Protamine				5.16 kJ mol^−1 K	-10.21 kcal/mol	-8.979 kcal/mol			
